Test results taken from US12349704B2, “High quality cultured meat, compositions and methods for producing same” (ALEPH FARMS LTD., priority 2018, dated 2025).

Tests used:
BEF cells [1] = assay: Vitamin B12 enrichment of cells, HPLC-UV/Vis of cell pellet; assay type: cell-based, bovine
BEF cells [2] = assay: Cyanocobalamin coloring of bovine cells; assay type: cell-based
BEF cells [3] = conditions: 0.5 mM in medium, 24 hours
[4] = system: Bovine embryonic fibroblasts (BEF); assay: Beta-carotene uptake from the medium into bovine cells (absorbance spectrum, spectrophotometer); assay type: cell-based
BEF cells [5] = assay: Carotenoid uptake, UPLC-UV/Vis of cell pellet, BEF cells; assay type: cell-based, bovine; conditions: beta-carotene 10% emulsion red, 24 hours
[6] = system: mixture of BEF and BEM cells; assay: Carotenoid uptake, UPLC-UV/Vis of cell pellet, mixture of BEF and BEM cells; assay type: cell-based, bovine; conditions: 24 hours
[7] = system: mixture containing BEF and BEM cells; assay: Zinc enrichment of cells, IPC-MS; assay type: cell-based, bovine; conditions: 72 hours
[8] = water soluble beta-carotene, BEF cells, after 24 hours

**Q.** With Cyanocobalamin [Vitamin B12] as the molecule, how does the “kind of uptake over the concentrations examined” value (BEF cells [1]; 1.67, 3.33, 6.67 and 13.3 mg/ml) read?
**A.** linear uptake

**Q.** And the cells pellets color (BEF cells [1]; 13.3, 6.67, 3.33 and 1.67 mg/ml, 24 hours)?
**A.** red-pink in various intensities

**Q.** What about the “μg Vitamin B12/g cells” value (BEF cells [1]; concentration in the medium 1.67 mg/ml, 24 hours) of the same molecule?
**A.** 104.0 μg Vitamin B12/g cells

**Q.** What about the “μg Vitamin B12/g cells” value (BEF cells [1]; concentration in the medium 3.33 mg/ml, 24 hours) of the same molecule?
**A.** 417 μg Vitamin B12/g cells

**Q.** What about the “μg Vitamin B12/g cells” value (BEF cells [1]; concentration in the medium 6.67 mg/ml, 24 hours) of the same molecule?
**A.** 851 μg Vitamin B12/g cells

**Q.** And the “μg Vitamin B12/g cells” value (BEF cells [1]; concentration in the medium 13.33 mg/ml, 24 hours)?
**A.** 1102 μg Vitamin B12/g cells

**Q.** What about the “color of the cells” value (BEF cells [2]; 10 μg/ml, 24 h) of the same molecule?
**A.** no visual change

**Q.** And the “color of the cells” value (BEF cells [2]; 100 μg/ml, 24 h)?
**A.** no visual change

**Q.** What about the “color of the cells” value (BEF cells [2]; 1 mg per ml growth medium, bovine-embryonic fibroblasts and myoblasts) of the same molecule?
**A.** distinct red-pink color

**Q.** What about the “color of the cells” value (BEF cells [2]; 1000 μg/ml, 24 h) of the same molecule?
**A.** red-pink

**Q.** Which “increase of iron content versus standard medium only” value (BEF cells [3]) does the source give for O.O.O.O.O.O.O.O=S(=O)([O-])[O-].[Fe+2] [Iron Sulfate heptahydrate, Iron (II) Sulfate heptahydrate] here?
**A.** about 3 fold

**Q.** What about the “iron content of cells” value (BEF cells [3]; BEF cells at full confluence, standard medium only 8.36) of the same molecule?
**A.** 25.11 μg iron/g cells

**Q.** With CC1=C(/C=C/C(C)=C/C=C/C(C)=C/C=C/C=C(C)/C=C/C=C(C)/C=C/C2=C(C)CCCC2(C)C)C(C)(C)CCC1 [beta-carotene] as the molecule, how does the “total uptake of beta carotene by the cells” value ([4]; 100 μg of beta-carotene applied to 1.4*10^6 cells, 24 hours) read?
**A.** 40 µg

**Q.** And the “color of the cells” value ([4]; water soluble beta-carotene, 24 hours)?
**A.** strong orange color

**Q.** And the “decrease of beta carotene optical density peak at 450 nm in the growth medium” value [4, 8]?
**A.** 2.7 fold

**Q.** What about the “decrease of beta carotene optical density peak at 480 nm in the growth medium” value [4, 8] of the same molecule?
**A.** 2.3 fold

**Q.** And the “decrease of beta carotene optical density peak at 520 nm in the growth medium” value [4, 8]?
**A.** 2.4 fold

**Q.** What about the cells pellet color (BEF cells [5]; 110 μg/ml) of the same molecule?
**A.** red-orange color

**Q.** What about the “uptake, concentration of pure nutrient in the cells” value (BEF cells [5]; 0.11 mg/ml in medium) of the same molecule?
**A.** 200 μg beta-carotene/gr cells

**Q.** How did the cells pellet color ([6]; 1.1 mg/ml) turn out when CC1=C(/C=C/C(C)=C/C=C/C(C)=C/C=C/C=C(C)/C=C/C=C(C)/C=C/C2=C(C)C(=O)CCC2(C)C)C(C)(C)CCC1=O [Canthaxanthin] was run?
**A.** red-orange

**Q.** And the “uptake, concentration of pure nutrient in the cells” value ([6]; Canthaxanthin 10% CWS/S, 1.1 mg/ml in medium, BEF and BEM cells)?
**A.** 420 μg Canthaxanthin/gr cells

**Q.** Which results are given for [Cl-].[Cl-].[Zn+2] [zinc chloride, Zinc chloride]?
**A.** zinc content of cells (uptake) ([7]; 100 μM (13 μg/ml), unsupplemented medium 8.5): 30.44 μg zinc/gr cells; increase of zinc content versus unsupplemented medium ([7]; 100 μM): about 3.6 folds
